Test results as given in patent US10227575B2, “Multi-domain enzymes having cutinase activity, compositions comprising same and uses thereof” (OZYMES, priority 2015, dated 2019).
Some results were stated once for a whole list of compounds, not compound by compound.

B1: Am-Kr: chimeric variant: AmCUT fused to the T/P-rich linker domain and polymer binding domain of KrCUT, SEQ ID NO: 27 (protein)
chain: ACSDLEIVFARGSGEAPGLGITGTPLVSDVKSALSSASVSSYAVDYAASYDQTSAGPGATDMSNHIKSTAAACPDTKFAIGGYSQGASVTDIAIGIRTYLGTGQTIPTELAPRVVAVIAFGNPLGLYGQTIKTASPTYGPKSLEFCNRGDNVCGGTGTGPGYGHLSYARDGSVDQAAAFIAKQYNASAGTPTTPTPTPTPTPVPTTCVRDSTRDHVAADRAVSLYGRAYARGSRDSLGATSSYNVVSLQQVEGGWRLVTAC
modifications: YebF carrier; Am-Kr variant
B2: Cf-TP: chimeric variant: catalytic and polymer binding domains of CfCUT with T/P-rich linker domain of KrCUT, SEQ ID NO: 29 (protein)
chain: APACPDVELVFARGTGEAAGLGIVGRPLERALAAELPGRTVVATAVDYAASSSQASAGPGSGDMVAKVRSRAAACPGTQFVLGGYSQGATVTDLALGIRTGVTAGTALPEDLAARVAAVVVYGNPLGLTRRTIAQAAPAFATRTVEYCNAGDPVCEPGGGRFTAHITYATNGTVLEGARFAAARVTAAGTPTTPTPTPTPTPVPTTCVTASSLQHVRDGRAYPLWMRTYARGSGDPLGVLSSRTVVSLQADGTDTWRKVAAC
modifications: YebF carrier; Cf-TP variant

Type: biochemical, Petromyces albertensis
Conditions: after 1 hours
Procedure: The enzymes purified in Example 18 were tested for their ability to degrade the mycotoxin Ochratoxin A. In general, the mycotoxin was incubated with different concentrations of the enzyme, and the remaining mycotoxin concentration, as well the respective degradation products, were monitored by LC-MS over time (where possible/applicable).
Reactions were performed in 1 mL volumes in glass HPLC vials comprising the mycotoxin to be analyzed and the enzyme to be tested. For Ochratoxin A (Petromyces albertensis, 01877 Sigma), 50 μL of a 100 ppm stock solution in methanol (final concentration of 5 ppm) was added to 910 μL of distilled water and 40 μL of the enzyme to be tested. In control reactions, the volume of enzyme was substituted with distilled water. The reactions were incubated in an Eppendorf thermomixer at 37° C. with shaking at 750 rpm. 100 μL samples were withdrawn at 1, 4 and 24 h for chromatographic analysis.
Mycotoxin analysis was carried out using a Shimadzu LCMS-2020 equipped with a UV/vis detector. Chromatographic separation of 10 μL injected sample was carried out at 30° C. on a Kinetex 2.6 μm XB-C18 column 100 Å (50×2.1 mm) using a binary gradient. For Ochratoxin A, eluent A consisted of water and eluent B consisted of acetonitrile and the UV detection wavelength was 360 nm. […]

| Molecule | Ochratoxin A degraded |
| --- | --- |
| B1 | 94-95% |
| B2 | 94-95% |
